Values of other authors in patent publication EP2794556B1, “BIS-(ARYL/HETEROARYL)-METHYLENE COMPOUNDS, PHARMACEUTICAL COMPOSITIONS CONTAINING SAME AND THEIR USE FOR TREATING CANCER” (Gleason, James L., priority 2011, dated 2013).
For at least one compound, name, drawing or mass did not settle the structure.

Tested on: SCC4 cell
Settings: in vitro; cited from earlier work

Question: Which “efficacy in inhibition of SCC4 cell proliferation compared with 1,25D” value does the source give for `CC(/C=C/C(=O)NO)=C\[C@@H](C)[C@H]1CC[C@H]2/C(=C/C=C3\C[C@@H](O)C[C@@H](O)C3)CCC[C@]12C` [triciferol] here?
Answer: more efficacious in vitro than 1,25D
